Reference: patent EP0791056B1, “LIPID-CLEAVAGE ENZYME COMPLEX” (priority 1994, dated 1996)

System: LCE
Assay: LCE assay: cleavage of [14C]-AZT-DMDOPE/AZT-DMDOPE to DMDOP by fractions of human blood cells
Format: biochemical
Description: Das Pipettierschema ist in der folgenden Tabelle angegeben. Tabelle
Zur Untersuchung der enzymatischen Spaltung in Abhängigkeit von der Substratkonzentration wurde eine Substratstammlösung von 0.98 nmol [^14C]-AZT-DMDOPE und 0.7 nmol AZT-DMDOPE/80 µl Aqua bidest. im LCE-Assay angesetzt. Die verschiedenen Substratkonzentrationen im LCE-Assay wurden durch kontinuierliche Verdopplung bzw. Halbierung des Volumens an Substratlösung eingestellt. Die Ansätze wurden in Glasröhrchen (5 ml) vorgelegt und durch Zugabe der Substratlösung gestartet. Die Inkubation wurde bei 37 °C im Wasserbad unter leichtem Schütteln durchgeführt.
Die Reaktionsansätze des LCE-Assays wurden nach entsprechender Inkubationszeit dem Wasserbad entnommen, und die Reaktion durch Zugabe von 750 µl 2-Propanol gestoppt. Nach gründlicher Durchmischung wurden die Ansätze anschließend mit 700 µl auf Raumtemperatur erwärmtem n-Heptan versetzt. Die Ansätze wurden erneut für 30 sec gut gemischt und zur Beschleunigung der Phasentrennung in der Minifuge T bei 3200 rpm für 15 min bei Raumtemperatur zentrifugiert. […]
Die Quantifizierung der enzymatischen Spaltung von AZT-DMDOPE wurde durch eine zweistufge Extraktion des Metaboliten DMDOP mit n-Heptan und anschließender Adsorption von Resten des Substrates AZT-DMDOPE an Kieselgel 60 H durchgeführt. […]

With CCCCCCCCCCCCSCC(COP(=O)(O)OC[C@H]1O[C@@H](n2cc(C)c(=O)[nH]c2=O)C[C@@H]1N=[N+]=[N-])OCCCCCCCCCC (some centres unmarked) [AZT-DMDOPE, (3'-Desoxy-3'-azidothymidin)-5'-phosphorsäure-(3-dodecyl-mercapto-2-decyloxy)-propylester] the “AZT-DMDOPE-spaltende Aktivität um Faktor kleiner als in den Membranfraktionen” value (Zellhomogenate vs. Membranfraktionen stimulierter humaner PBL) was 1.59 and the “AZT-DMDOPE-spaltende Aktivität um Faktor kleiner als in den Membranfraktionen” value (Zytosolfraktionen vs. Membranfraktionen stimulierter humaner PBL) was 6.3.
